Results of single-concentration screens

Sequences of proteins named here, by UniProt entry; tags and fusion partners are left off. Residues count along the entry.
UniProt Q4DA54, 1-478: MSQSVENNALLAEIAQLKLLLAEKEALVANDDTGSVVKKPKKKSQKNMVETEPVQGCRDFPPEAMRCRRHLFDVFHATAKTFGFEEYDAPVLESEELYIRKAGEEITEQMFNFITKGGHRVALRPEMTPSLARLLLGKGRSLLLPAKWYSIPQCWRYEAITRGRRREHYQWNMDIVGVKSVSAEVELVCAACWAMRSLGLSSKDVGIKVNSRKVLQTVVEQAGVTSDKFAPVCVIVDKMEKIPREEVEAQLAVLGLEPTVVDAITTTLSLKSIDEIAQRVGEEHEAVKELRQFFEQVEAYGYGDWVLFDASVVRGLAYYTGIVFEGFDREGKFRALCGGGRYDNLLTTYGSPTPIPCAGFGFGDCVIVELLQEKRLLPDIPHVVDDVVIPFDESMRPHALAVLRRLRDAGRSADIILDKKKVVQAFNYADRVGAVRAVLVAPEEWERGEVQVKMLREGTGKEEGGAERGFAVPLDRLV

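Enzyme assay of histidyl-tRNA synthetase; the read-out is not stated. Target: Histidine-tRNA ligase, Trypanosoma cruzi CL Brener (UniProt Q4DA54). Compounds at 30 µM. The record gives no direction; compounds that gave an IC50 in retests scored well above the rest, so higher reads as stronger inhibition. Size under these conditions: about 69,000 compounds, about 31 of them at 50% or above in at least one test.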

Values are the deposited “Percent Effect”, in %.
How 0% and 100% were set is not recorded. Most values in the screen are low, and negative values occur.
Compounds were drawn at random from those tested, without regard to their results.

{"compound": "COCCC1(C(=O)O)CCCN(C(=O)c2cc(F)ccc2OC)C1", "stereo": "centres unmarked", "effect": 3.017}
{"compound": "CC1(C)CN(C(=O)c2cc(F)cc3[nH]cnc23)CCS1", "effect": 7.921}
{"compound": "CN(C)C[C@H]1OC[C@@H]2CN(C(=O)NCc3cccnc3)CC[C@@H]21", "effect": 9.195}
{"compound": "CC1=C[C@@H](CN2CCC(CO)CC2)[C@H](C(C)C)C[C@H]1Cc1nnc(C)o1", "effect": -1.493}
{"compound": "Cn1cc(C2CCCN2C(=O)c2cnc(-c3ccccn3)s2)cn1", "stereo": "centres unmarked", "effect": 11.11}
{"compound": "Cc1cc(CN2C[C@@H](C)[C@@]3(CCN(CC(=O)N(C)C)C3=O)C2)oc1C", "effect": 2.532}
{"compound": "CC(=O)c1c(N(C)C)ccnc1C(F)(F)F", "effect": 8.995}
{"compound": "CN1CCN(c2ncnc3c2c(C(=O)NC2CC2)c2ccccn23)CC1", "effect": 3.825}
{"compound": "CNC(=O)c1cccc(CCNC(=O)N2CCc3ccccc3C2)c1", "effect": 7.027}
{"compound": "Cc1cc(CN2CCN(c3nn4cc(C)nc4s3)CC2)on1", "effect": -1.88}
{"compound": "Cc1ccc(OCC(O)CN(C)CC(=O)Nc2cc(C)on2)c(C)c1", "stereo": "centres unmarked", "effect": -9.827}
{"compound": "COc1ccc(-c2nc(CSC3CCCCNC3=O)co2)cc1", "stereo": "centres unmarked", "effect": 1.911}
{"compound": "CC(NC1CCN(CCc2ccncc2)CC1)c1cnn(C(C)C)c1", "stereo": "centres unmarked", "effect": 3.659}
{"compound": "Cc1nc(CN2CCCC(NCCc3ccccc3Cl)C2)no1", "stereo": "centres unmarked", "effect": 6.015}
{"compound": "COc1ccc2[nH]nc(CN3CCC(C(C)N(C)C)CC3)c2c1", "stereo": "centres unmarked", "effect": 0.5236}
{"compound": "CCN1CCN(c2ccc(F)cc2C(C)NCc2noc(C)n2)CC1", "stereo": "centres unmarked", "effect": 2.542}
{"compound": "Cc1ccc(C(=O)NCCCN(C)S(C)(=O)=O)c(=O)[nH]1", "effect": 7.609}
{"compound": "COCCN1CCC2(COCc3cnc(N4CCOCC4)nc32)C1", "stereo": "centres unmarked", "effect": 1.639}
{"compound": "CN(C)CCN1C(=O)C2(CCN(CC3CC3)CC2)c2ccccc21", "effect": 1.508}
{"compound": "Cc1cc(C(=O)NCc2ccccc2CN(C)Cc2ccco2)on1", "effect": 5.911}
{"compound": "COc1cc(NC(=O)c2nc3ccccc3n(C)c2=O)cc(OC)c1", "effect": 4.523}
{"compound": "CC(C)Cc1nc(OCC(N)=O)c(C#N)c2c1CCCC2", "effect": 6.024}
{"compound": "O=C(O)C1(Oc2ccc3ccccc3c2)CCN(c2ncccn2)CC1", "effect": 4.523}
{"compound": "CC(C)c1nn(C)c(Cl)c1CNCCn1cccn1", "effect": 11.67}
{"compound": "COCCC(=O)N1CCC(Nc2ncc(Br)cn2)CC1", "effect": 3.784}
{"compound": "CC(C)S(=O)(=O)N1C[C@H]2OC(=O)N(CCc3cccc(Cl)c3)[C@H]2C1", "effect": 10.06}
{"compound": "CCN1CCN2CCCN(S(=O)(=O)c3ccc(S(C)(=O)=O)cc3)C2C1=O", "stereo": "centres unmarked", "effect": 5.882}
{"compound": "Cc1noc(C)c1CN1C(=O)[C@H]2CC[C@@H]1CN(Cc1ccc(Cl)cc1)C2", "effect": 3.175}
{"compound": "CC1C(=O)Nc2cccnc2N1S(=O)(=O)c1cc(F)cc(F)c1", "stereo": "centres unmarked", "effect": 12.17}
{"compound": "Cc1csc([C@@H]2C[C@@H]3CCN(C(=O)c4cnccn4)C[C@H]3O2)n1", "effect": 5.376}
{"compound": "CCSCCNc1nc(-c2ccccn2)nc2c1c(C)nn2C", "effect": 9.36}

For reference, 3 entries once more:

| Compound | effect |
|---|---|
| `COc1ccc(-c2nc(CSC3CCCCNC3=O)co2)cc1` (centres unmarked) | 1.911 |
| `CNC(=O)c1cccc(CCNC(=O)N2CCc3ccccc3C2)c1` | 7.027 |
| `COc1ccc2[nH]nc(CN3CCC(C(C)N(C)C)CC3)c2c1` (centres unmarked) | 0.5236 |

From ChEMBL document CHEMBL3988442, “University of Dundee, Small-Polar-MMV Screening Library” (2021).